Source: PubChem BioAssay AID2685 (National Center for Advancing Translational Sciences (NCATS), 2010)
The other results are listed elsewhere or left out. Further columns of the screen follow, without active or inactive calls. Compounds called inactive in the main read-out are mostly missing here. Words in brackets tell the shape of the fitted curve; partial curves, single points and poor fits give uncertain potencies.

Assay: qHTS Assay for Lipid Storage Modulators in Drosophila S3 Cells;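 on cell number change: cells counted by Cell Tracker Red CMTPX staining in the red channel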
Settings: BODIPY lipid droplet fluorescence, 18-24 h; for cell number change: measured here: cell count max response, cells fed with added oleic acid
Summary of the method: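 Laser-scanning cytometry quantifies lipid droplet accumulation (500–530 nm total intensity; droplet/cell object ratio) in oleic acid-fed (400 uM added) Drosophila S3 cells treated with a concentration series. 20 uM Triacsin C defined 100% inhibition.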

[1] = measured here: cell number channel AC50, cells fed with added oleic acid
[2] = measured here: lipid fluorescence (Fed channel) AC50, cells fed with added oleic acid

Row | Structure (SMILES) | cell number change | AC50 [1] | AC50 [2]
1 | CCN1C(=O)/C(=C/C=C2\N(CC)c3cc(S(=O)(=O)N(C)C)ccc3N2c2ccccc2)SC1=S | -89.2% | 10.3 µM [falling, partial curve] | 0.517 µM [falling, full curve]
2 | C[C@H](N)c1nnc(SCC(=O)c2ccc(Cl)cc2)o1 | 9.91% |  | 18.4 µM [falling, partial curve]
3 | O=C(Cc1ccc(Cl)cc1)Nc1cc(S(=O)(=O)N2CCOCC2)ccc1N1CCCC1 | -1.64% |  | 0.731 µM [rising, single point]
4 | CC1CC(C)CN(C(=O)COC(=O)/C=C/c2cccc([N+](=O)[O-])c2)C1 (configuration not stated) | -3.21% |  | 
5 | CC(=O)C1=C(c2ccccc2)OC(N)=C(C#N)C1c1ccc(O)cc1 (configuration not stated) | -1.6% |  | 0.058 µM [rising, full curve, poor fit]
6 | CCc1ccc(CN2CCN(c3ncccn3)CC2)cc1 | 1.82% |  | 
7 | CN1/C(=C/C(=O)c2nc(S(C)(=O)=O)ncc2Cl)C(C)(C)c2ccccc21 | -88.4% | 14.6 µM [falling, partial curve] | 29.1 µM [falling, partial curve]
8 | Cc1nnc(SCCn2c(N3CCCC(C)C3)nc3c2c(=O)n(C)c(=O)n3C)s1 (configuration not stated) | 14.3% |  | 
9 | COc1ccc(C2c3ccc4ccccc4c3Oc3ncn(CCN4CCOCC4)c(=N)c32)cc1OC (configuration not stated) | -23.8% |  | 0.411 µM [falling, single point]
10 | COc1ccc(CNC(=O)C2CC(c3ccc(F)cc3)=NO2)cc1 (configuration not stated) | 0.959% | 1.3 µM [falling, full curve] | 6.51 µM [falling, partial curve, poor fit]
11 | COc1cc(OC)c(NC(=O)CN(C)S(=O)(=O)c2ccc3[nH]c(=O)oc3c2)cc1Cl | -3.54% |  | 
12 | CSCCC(NC(=O)c1ccccc1)C(=O)N1CC(C)OC(C)C1 (configuration not stated) | 20.5% |  | 20.6 µM [rising, single point]
13 | N#Cc1cn(-c2ccccc2)nc1-c1ccco1 | -18.3% |  | 
14 | COC(=O)c1c(C(=O)OC)c(-c2cccc(C)c2)n2c1CS(=O)(=O)C2 |  | 1.3 µM [rising, full curve] | 1.84 µM [rising, partial curve]
15 | O=C(O)C1(c2ccccc2)CCC(Nc2ccccc2)C1 (configuration not stated) | 28.4% |  | 
16 | COc1ccc2cc(-c3cc(C(=O)OCC(=O)NC4CCS(=O)(=O)C4)c4ccccc4n3)ccc2c1 (configuration not stated) | -61.8% | 16.4 µM [falling, partial curve] | 
17 | CCOC(=O)c1c(C)[nH]c(C)c1C(=O)CSc1ncccn1 |  |  | 0.517 µM [rising, full curve]
18 | CSc1ncccc1C(=O)OCc1ccccc1Cl | 16.4% |  | 
19 | COc1cccc(NC(=O)C2CC2(c2cccc(OC)c2)c2cccc(OC)c2)c1 (configuration not stated) | -5.97% |  | 29.1 µM [falling, single point]
20 | CCOC(=O)c1oc2ccc(Br)cc2c1COC(=O)C1=COCCO1 | 97.5% | 5.8 µM [rising, partial curve] | 
21 | O=C1C=C(c2ccc(F)cc2OCc2ccccc2)C[C@@H](c2ccc3c(c2)OCO3)C1 | -2.29% |  | 0.82 µM [rising, full curve, poor fit]

Row | Structure (SMILES) | cell number change | AC50 [1] | AC50 [2]
22 | CC(C)CN1C(=O)c2ccc(NC(=O)c3ccccc3F)cc2C1=O | 13.8% |  | 2.59 µM [rising, partial curve]
23 | CCOC(=O)C(NC(C)=O)(NS(=O)(=O)c1ccccc1)C(F)(F)F (configuration not stated) |  | 0.461 µM [falling, single point] | 
24 | CC(=O)c1c(N2CCOCC2)nc2ccc(Br)cc2c1-c1ccccc1 | 47.6% |  | 29.1 µM [rising, single point]
25 | CSCCC(NS(=O)(=O)c1ccccc1F)C(=O)NCC(C)(C)N1CCOCC1 (configuration not stated) | 14.7% |  | 0.731 µM [falling, full curve]
26 | CSCc1ccc(C(=O)NC(C)c2cnn(-c3ccccn3)c2C)o1 (configuration not stated) |  |  | 6.51 µM [rising, single point]
27 | CC(OC(=O)CN1C(=O)c2ccccc2C1=O)C(=O)NC1CCCC1 (configuration not stated) | 1.28% |  | 10.3 µM [rising, partial curve]
28 | CCN1C(=O)[C@@H]2[C@@H](c3ccc(-c4ccc(C(C)=O)cc4)c(OC)c3)N3CCC[C@@]3(C(=O)OC)[C@@H]2C1=O | -15.8% |  | 29.1 µM [falling, single point]
29 | CCOc1ccc(NC(=O)CN(C)C(=O)Cc2c[nH]c3ccccc23)cc1OCC | 0.455% |  | 0.82 µM [rising, full curve, poor fit]
30 | O=C(NCc1nnnn1-c1ccc(F)cc1)c1ccc([N+](=O)[O-])o1 |  | 6.51 µM [rising, single point] | 
31 | CC1(C)CCN2CCC(C)(C)c3c(O)ccc1c32 |  |  | 5.8 µM [falling, full curve, poor fit]
32 | O=C(N/N=C/c1cc(Br)ccc1O)Nc1ccccc1 | -28.3% |  | 11.6 µM [falling, partial curve]
33 | CC(CCc1ccccc1)NC(=O)C(=O)NCCc1ccccc1 (configuration not stated) | 10.2% |  | 5.8 µM [rising, full curve]
34 | Cc1cc(N=Cc2c(O)n(-c3cccc(C(F)(F)F)c3)c(=O)c3ccccc23)no1 | 21.3% |  | 29.1 µM [rising, single point]
35 | CCCCn1c(-c2cc(Cl)ccc2OC)n[nH]c1=S | -27.7% |  | 0.651 µM [rising, partial curve, poor fit]
36 | Cc1ccccc1OCC(=O)Nc1ccc2[nH]ncc2c1 | -5.49% |  | 6.51 µM [rising, full curve]
37 | COc1cc(Br)c(C(C)NC(=O)c2ccc(C)cc2)cc1OC (configuration not stated) | -13% |  | 
38 | Cc1ccc(S(=O)(=O)N2CCN=C2SCc2c(F)cccc2Cl)cc1 | -2.6% |  | 29.1 µM [falling, single point]
39 | Cc1cc(NC(=O)c2ccc(Cl)cc2)ccc1NC(=O)c1ccccc1Cl |  |  | 0.411 µM [rising, single point]
40 | COc1ccc(Cl)cc1C(=O)Nc1nnn(C)n1 | -5.98% |  | 
41 | NC(=O)C1CCN(C(=O)Cn2cccc2C(=O)c2ccccc2)CC1 | -31.7% | 0.13 µM [falling, full curve, poor fit] | 29.1 µM [falling, single point]
42 | CC(C)(C)c1cc(CN2CCCC(O)C2)c(O)c(C(C)(C)C)c1 (configuration not stated) | -77.6% | 29.1 µM [falling, single point] | 29.1 µM [falling, single point]

Of the compounds above, these have an aryl methoxy group.
Row | Structure (SMILES) | cell number change | AC50 [1] | AC50 [2]
9 | COc1ccc(C2c3ccc4ccccc4c3Oc3ncn(CCN4CCOCC4)c(=N)c32)cc1OC (configuration not stated) | -23.8% |  | 0.411 µM [falling, single point]
10 | COc1ccc(CNC(=O)C2CC(c3ccc(F)cc3)=NO2)cc1 (configuration not stated) | 0.959% | 1.3 µM [falling, full curve] | 6.51 µM [falling, partial curve, poor fit]
11 | COc1cc(OC)c(NC(=O)CN(C)S(=O)(=O)c2ccc3[nH]c(=O)oc3c2)cc1Cl | -3.54% |  | 
16 | COc1ccc2cc(-c3cc(C(=O)OCC(=O)NC4CCS(=O)(=O)C4)c4ccccc4n3)ccc2c1 (configuration not stated) | -61.8% | 16.4 µM [falling, partial curve] | 
19 | COc1cccc(NC(=O)C2CC2(c2cccc(OC)c2)c2cccc(OC)c2)c1 (configuration not stated) | -5.97% |  | 29.1 µM [falling, single point]
28 | CCN1C(=O)[C@@H]2[C@@H](c3ccc(-c4ccc(C(C)=O)cc4)c(OC)c3)N3CCC[C@@]3(C(=O)OC)[C@@H]2C1=O | -15.8% |  | 29.1 µM [falling, single point]
35 | CCCCn1c(-c2cc(Cl)ccc2OC)n[nH]c1=S | -27.7% |  | 0.651 µM [rising, partial curve, poor fit]
37 | COc1cc(Br)c(C(C)NC(=O)c2ccc(C)cc2)cc1OC (configuration not stated) | -13% |  | 
40 | COc1ccc(Cl)cc1C(=O)Nc1nnn(C)n1 | -5.98% |  | 

(cont.)

Row | Structure (SMILES) | cell number change | AC50 [1] | AC50 [2]
43 | COc1cc(-c2c(-c3cccc(C)c3)oc3ccccc23)cc(OC)c1OC | 20.7% |  | 29.1 µM [rising, single point]
44 | CCCc1cc(C(=O)N2CCN(c3ccccc3C)CC2)cs1 | -17% |  | 5.8 µM [rising, partial curve]
45 | COc1ccc(C(=O)c2c3ccccc3[n+]([O-])n2CCCN)cc1 |  |  | 25.9 µM [falling, partial curve, poor fit]
46 | CCC(C)NCCOc1ccc(Br)cc1 (configuration not stated) | -6.41% |  | 29.1 µM [falling, single point]
47 | COc1ccccc1N1CCN(C(=O)COc2cccc3ccccc23)CC1 | -12% |  | 5.8 µM [falling, single point]
48 | Cc1nc2cc(NC(=O)COc3ccccc3C#N)ccc2n1-c1ccccc1 | 30.8% | 1.64 µM [rising, full curve, poor fit] | 23.1 µM [rising, partial curve, poor fit]
49 | COC(=O)C(CC(=O)c1ccc(Br)cc1)n1cccn1 (configuration not stated) | -27.2% |  | 29.1 µM [falling, single point]
50 | COC(=O)CNC(=O)CN(c1ccc(OC)cc1OC)S(=O)(=O)c1ccccc1 | -30.4% | 1.64 µM [falling, partial curve] | 
51 | O=C(c1cc(-c2cccc(O)c2)on1)N1CCCCC1 | -7.37% |  | 23.1 µM [falling, single point]
52 | CCOC(=O)Nc1ccc2c(c1)N(C(=O)CN(CC)CC)c1ccccc1CC2 | -10.2% |  | 32.6 µM [rising, single point]
53 | Cn1c(SCc2cccc([N+](=O)[O-])c2)nc2ccccc2c1=O | -22.2% |  | 18.4 µM [falling, single point]
54 | COc1ccc(O)c(/C=N/NC(=O)CN2CCS(=O)(=O)CC2)c1 | 2.79% |  | 10.3 µM [falling, single point]
55 | Cc1ccc2cc3cc(C(=O)NCCCN4CC(C)CC(C)C4)oc3nc2c1 (configuration not stated) | 15.8% |  | 
56 | CC(C)N(Cc1nc(-c2ccccc2)no1)C(=O)CN(C)S(=O)(=O)c1ccc(Br)cc1 | -30.3% | 29.1 µM [falling, single point] | 32.6 µM [falling, single point]
57 | O=C([C@@H]1CCCN1C(=O)c1cccs1)N1CCN(S(=O)(=O)c2ccccc2F)CC1 | 11.5% |  | 6.51 µM [rising, partial curve, poor fit]
58 | Cn1c(N2CCC(C(N)=O)CC2)nc2c1c(=O)n(Cc1ccc(Cl)cc1)c(=O)n2C | 14% |  | 2.91 µM [rising, partial curve]
59 | Cc1ccc(NC(=O)CCC(=O)N2CCC(c3ccccc3)=N2)cc1S(=O)(=O)N1CCCCC1 | -64.7% | 20.6 µM [falling, partial curve] | 
60 | COc1cc(SC#N)ccc1N=Cc1c(C)[nH]n(-c2ccc(C)cc2C)c1=O | -41.8% | 32.6 µM [falling, single point] | 
61 | O=C(O)C/C(=C\c1ccc2c(c1)OCO2)c1nc2ccccc2s1 | -7.69% |  | 29.1 µM [rising, single point]

Single records (already shown):
`CC(C)(C)c1cc(CN2CCCC(O)C2)c(O)c(C(C)(C)C)c1` (configuration not stated) in the list: cell number change: -77.6%; AC50 [1]: 29.1 µM [falling, single point]; AC50 [2]: 29.1 µM [falling, single point]
`CSCCC(NC(=O)c1ccccc1)C(=O)N1CC(C)OC(C)C1` (configuration not stated) in the list: cell number change: 20.5%; AC50 [2]: 20.6 µM [rising, single point]
